PubChem BioAssay AID1508588 | Peter MacCallum Cancer Centre | 2020
Purpose: 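Which gene losses make BRAF-mutant melanoma cells more responsive to vemurafenib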 (primary screen). System: human WM266.4 melanoma cells (BRAF V600 mutant). Knock-down reagent: siRNA pool against human genes, 40 nM. Duration: 96 h from transfection to read-out. Challenge: vemurafenib 300 nM (about IC25), added 48 h after transfection, for 48 h; comparison arm got DMSO vehicle only. Measurement: 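Cell gain (DAPI nuclei at end minus before drug, mean of two replicates) and medium lactate by absorbance per cell, both as ratio to non-targeting siRNA, also grouped into fold-change classes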. Direction: cell gain with vemurafenib: higher = more cell gain than with non-targeting siRNA; lactate per cell with vemurafenib: higher = more lactate made per cell. Rule for the call: 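a knock-down counts as enhancing when its fold-change classes with vehicle and with vemurafenib, taken together, show a stronger drug effect on cell gain or lactate per cell; exact class pairs not stated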. Calls: active = enhances vemurafenib effect; inactive = no enhancement seen.
The whole screen tested about 18,000 reagents; shown is a random part of them. 790 of them (4.4%) count as active. 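Calls rest on a combination of fold-change classes in drug and vehicle arms, not all shown here.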 Unmarked entries are inactive.

{"Target gene":"PLEKHF2","cell gain with vemurafenib":0.88,"lactate per cell with vemurafenib":0.68}
{"Target gene":"IKZF1","cell gain with vemurafenib":0.79,"lactate per cell with vemurafenib":1.02}
{"Target gene":"ASB9","cell gain with vemurafenib":1.08,"lactate per cell with vemurafenib":0.74}
{"Target gene":"OPALIN","cell gain with vemurafenib":0.5,"lactate per cell with vemurafenib":0.68}
{"Target gene":"ALDH1L2","cell gain with vemurafenib":0.11,"lactate per cell with vemurafenib":1.3}
{"Target gene":"STRADA","cell gain with vemurafenib":0.18,"lactate per cell with vemurafenib":1.56}
{"Target gene":"COL11A1","cell gain with vemurafenib":0.26,"lactate per cell with vemurafenib":1.31}
{"Target gene":"ZNF519","cell gain with vemurafenib":"0.78 (active)","lactate per cell with vemurafenib":0.49}
{"Target gene":"TM4SF5","cell gain with vemurafenib":0.89,"lactate per cell with vemurafenib":0.44}
{"Target gene":"UGT3A2","cell gain with vemurafenib":0.03,"lactate per cell with vemurafenib":2.75}
{"Target gene":"LANCL3","cell gain with vemurafenib":0.75,"lactate per cell with vemurafenib":0.82}

Targets listed so far whose gene name starts with A or a (2):
{"Target gene":"ASB9","cell gain with vemurafenib":1.08,"lactate per cell with vemurafenib":0.74}
{"Target gene":"ALDH1L2","cell gain with vemurafenib":0.11,"lactate per cell with vemurafenib":1.3}

The results go on.
{"Target gene":"TBCCD1","cell gain with vemurafenib":0.14,"lactate per cell with vemurafenib":1.76}
{"Target gene":"OR5I1","cell gain with vemurafenib":0.11,"lactate per cell with vemurafenib":0.61}
{"Target gene":"ARID2","cell gain with vemurafenib":0.84,"lactate per cell with vemurafenib":0.66}
{"Target gene":"DUX5","cell gain with vemurafenib":0.78,"lactate per cell with vemurafenib":1.1}
{"Target gene":"ZNF493","cell gain with vemurafenib":0.58,"lactate per cell with vemurafenib":0.6}
{"Target gene":"UBE2M","cell gain with vemurafenib":0.68,"lactate per cell with vemurafenib":1.84}
{"Target gene":"NKD1","cell gain with vemurafenib":0.59,"lactate per cell with vemurafenib":0.62}
{"Target gene":"BOD1L1","cell gain with vemurafenib":1.11,"lactate per cell with vemurafenib":0.64}
{"Target gene":"VNN1","cell gain with vemurafenib":0.6,"lactate per cell with vemurafenib":1}
{"Target gene":"RPL26","cell gain with vemurafenib":-0.09,"lactate per cell with vemurafenib":2.49}
{"Target gene":"ELL2","cell gain with vemurafenib":0.77,"lactate per cell with vemurafenib":0.57}
{"Target gene":"HSF2","cell gain with vemurafenib":0.79,"lactate per cell with vemurafenib":0.92}
{"Target gene":"ZNF134","cell gain with vemurafenib":0.65,"lactate per cell with vemurafenib":0.42}
{"Target gene":"MRPL22","cell gain with vemurafenib":0.19,"lactate per cell with vemurafenib":1.8}
{"Target gene":"GATA1","cell gain with vemurafenib":0.28,"lactate per cell with vemurafenib":1.43}
{"Target gene":"SCARA5","cell gain with vemurafenib":0.69,"lactate per cell with vemurafenib":1.35}
